Drawing on paper PMC6771821, “Cryo‐EM structure of the MinCD copolymeric filament from Pseudomonas aeruginosa at 3.1 Å resolution” (Febs Letters, 2019), this text covers binding for two molecules.

Assay [1] has as its target T1, MinD from Pseudomonas aeruginosa, full-length, His6-tagged (Pseudomonas aeruginosa) (UniProt Q9HYZ6).
T1 sequence: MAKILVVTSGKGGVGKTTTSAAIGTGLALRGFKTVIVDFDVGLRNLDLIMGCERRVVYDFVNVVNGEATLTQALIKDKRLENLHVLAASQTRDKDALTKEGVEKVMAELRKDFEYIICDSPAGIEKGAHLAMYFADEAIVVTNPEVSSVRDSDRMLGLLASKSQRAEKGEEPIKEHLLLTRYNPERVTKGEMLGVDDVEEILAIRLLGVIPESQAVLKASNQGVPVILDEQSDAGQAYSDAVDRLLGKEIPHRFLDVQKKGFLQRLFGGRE
The assay is described as follows: cryo-EM structure; unsupported MinCD filaments in solution; MinC and MinD each 0.5 mg/mL combined in equal proportion in 20 mM HEPES-Na, 100 mM potassium acetate, 5 mM magnesium acetate, pH 7.0; 1 mM ATP, 15 min at room temperature; helical reconstruction; both purified.

The target in assay [2] is T1, MinD from Pseudomonas aeruginosa, full-length, His6-tagged (Pseudomonas aeruginosa). The assay is described as follows: negative-stain electron microscopy of filaments; ATP-polymerized assemblies of purified MinC and MinD, negatively stained; both purified.
The target is the same in assay [3]. Put plainly: cryo-EM imaging with 2D classification of filaments on lipid nanotubes; MinCD mixture combined with lipid nanotubes (E. coli total lipid extract and galactosylceramide, 3:7) before the addition of ATP; polymerization buffer; both purified.

No constants are given. Whether binding was seen depends on the method and setting. Some binding calls cover weakened binding; strength is not graded here. Sequences can lack the tags named with a protein.

B1: MinD from Pseudomonas aeruginosa, full-length, His6-tagged (protein, UniProt Q9HYZ6 1-271)
chain: MAKILVVTSGKGGVGKTTTSAAIGTGLALRGFKTVIVDFDVGLRNLDLIMGCERRVVYDFVNVVNGEATLTQALIKDKRLENLHVLAASQTRDKDALTKEGVEKVMAELRKDFEYIICDSPAGIEKGAHLAMYFADEAIVVTNPEVSSVRDSDRMLGLLASKSQRAEKGEEPIKEHLLLTRYNPERVTKGEMLGVDDVEEILAIRLLGVIPESQAVLKASNQGVPVILDEQSDAGQAYSDAVDRLLGKEIPHRFLDVQKKGFLQRLFGGRE
With B1, the binding result in assay [1] is recorded as “binds”.

B2: MinC from Pseudomonas aeruginosa, full-length, His6-tagged (natural protein, UniProt Q9HYZ7 1-263, looked up)
chain: MSQADLLDQDPVFQLKGSMLAVTILELAHNDLARLERQLADKVAQAPNFFRDTPLVMALDKLPEGEGRLDLPALLEVCRRHGLRTLAIRAGREEDIAAAQALDLPVLPPSGARERPLDIKDSAPRKPAEEPSPSAGEARPEPAKAEEKPAEPVSRPTKVVKTPVRGGMQIYAAGGDLIVLAAVSPGAELLADGNIHVYGPMRGRALAGVKGDATARIFCQQLAAELVSIAGNYKVAEDLRRSPQWGKAVHVSLSGDVLNITRL
notes: MinC (septum site-determining protein), Pseudomonas aeruginosa, residues 1-263, cloned into pET-15b; only residues 156-261 (MinC^C) are modelled in the cryo-EM map; the tag was not removed; also called MinC2 (dimer); source: E. coli C41(DE3), purified (HisTrap HP, dialysis); not shown: His6, N-terminal, kept
Regarding B2, the binding result in assay [2], in assay [3] and in assay [1] was “binds” in each case.
